# Laboratory results as given in publication PMC11253389.
# By UniProt entry, the sequences of proteins in these tests, tags left out. Residues count along the entry.
# UniProt P35442, residues 19-1172: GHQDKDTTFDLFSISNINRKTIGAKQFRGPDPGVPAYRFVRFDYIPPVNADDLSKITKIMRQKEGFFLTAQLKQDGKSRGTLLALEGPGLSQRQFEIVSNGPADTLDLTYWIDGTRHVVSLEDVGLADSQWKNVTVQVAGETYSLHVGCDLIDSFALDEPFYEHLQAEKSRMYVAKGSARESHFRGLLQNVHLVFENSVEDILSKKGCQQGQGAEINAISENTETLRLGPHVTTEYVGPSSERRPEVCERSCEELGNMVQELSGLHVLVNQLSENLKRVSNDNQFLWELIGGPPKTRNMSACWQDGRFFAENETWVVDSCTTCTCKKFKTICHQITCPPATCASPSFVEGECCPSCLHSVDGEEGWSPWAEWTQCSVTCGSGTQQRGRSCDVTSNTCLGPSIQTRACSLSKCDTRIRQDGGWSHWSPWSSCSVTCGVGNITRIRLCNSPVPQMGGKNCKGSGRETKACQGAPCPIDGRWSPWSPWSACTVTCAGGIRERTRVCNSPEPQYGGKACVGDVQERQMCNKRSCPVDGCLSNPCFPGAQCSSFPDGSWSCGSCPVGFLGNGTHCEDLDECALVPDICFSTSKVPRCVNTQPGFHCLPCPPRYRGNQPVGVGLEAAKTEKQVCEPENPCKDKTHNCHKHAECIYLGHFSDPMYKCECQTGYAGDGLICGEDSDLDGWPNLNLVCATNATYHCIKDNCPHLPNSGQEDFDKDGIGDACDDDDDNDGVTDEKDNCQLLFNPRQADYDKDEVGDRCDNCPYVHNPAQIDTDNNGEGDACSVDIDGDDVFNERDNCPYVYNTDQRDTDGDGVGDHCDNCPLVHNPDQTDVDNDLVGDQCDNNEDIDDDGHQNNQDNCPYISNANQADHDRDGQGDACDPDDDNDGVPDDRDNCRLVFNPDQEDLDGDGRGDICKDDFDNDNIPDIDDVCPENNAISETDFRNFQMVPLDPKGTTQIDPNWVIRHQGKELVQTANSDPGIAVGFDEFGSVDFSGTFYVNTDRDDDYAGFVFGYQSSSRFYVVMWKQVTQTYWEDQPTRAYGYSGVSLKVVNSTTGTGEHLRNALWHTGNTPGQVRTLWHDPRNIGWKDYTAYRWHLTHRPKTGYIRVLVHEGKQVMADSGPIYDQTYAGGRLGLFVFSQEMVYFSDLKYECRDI
# UniProt P63104: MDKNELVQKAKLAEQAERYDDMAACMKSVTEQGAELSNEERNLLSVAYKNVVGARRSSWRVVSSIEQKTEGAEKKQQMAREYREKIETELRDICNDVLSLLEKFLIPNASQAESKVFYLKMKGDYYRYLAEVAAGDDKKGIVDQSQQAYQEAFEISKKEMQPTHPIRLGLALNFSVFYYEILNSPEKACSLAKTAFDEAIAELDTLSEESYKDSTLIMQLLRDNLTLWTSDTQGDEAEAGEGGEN
# UniProt P35222: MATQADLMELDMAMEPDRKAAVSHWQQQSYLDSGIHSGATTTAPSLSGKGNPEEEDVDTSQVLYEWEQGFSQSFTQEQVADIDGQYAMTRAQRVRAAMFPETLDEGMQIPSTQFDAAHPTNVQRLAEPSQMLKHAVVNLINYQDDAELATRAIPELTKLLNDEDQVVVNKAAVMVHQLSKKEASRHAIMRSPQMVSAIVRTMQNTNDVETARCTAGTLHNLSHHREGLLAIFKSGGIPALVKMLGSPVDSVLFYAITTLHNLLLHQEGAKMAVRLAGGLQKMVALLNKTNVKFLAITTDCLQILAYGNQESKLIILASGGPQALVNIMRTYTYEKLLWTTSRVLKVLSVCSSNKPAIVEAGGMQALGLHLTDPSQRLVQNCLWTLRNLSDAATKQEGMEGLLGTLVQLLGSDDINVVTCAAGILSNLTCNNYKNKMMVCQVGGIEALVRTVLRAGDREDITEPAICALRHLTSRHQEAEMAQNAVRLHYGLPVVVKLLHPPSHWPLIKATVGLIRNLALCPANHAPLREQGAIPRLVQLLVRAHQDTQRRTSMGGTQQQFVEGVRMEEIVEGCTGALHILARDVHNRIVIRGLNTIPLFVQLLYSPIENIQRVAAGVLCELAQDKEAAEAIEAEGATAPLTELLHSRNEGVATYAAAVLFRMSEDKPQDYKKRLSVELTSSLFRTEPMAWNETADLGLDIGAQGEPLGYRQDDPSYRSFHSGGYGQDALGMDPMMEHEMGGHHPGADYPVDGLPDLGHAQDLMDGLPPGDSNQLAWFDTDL
# Results are given in words; binding and its absence hold for the method and conditions named. Binding seen in cells or lysates may run through a third protein. Some binding calls cover weakened binding; strength is not graded here.
# Assays:
# [1] = molecular target: Thrombospondin-2 (THBS2) (human (endogenous in CRC cell lines)) (UniProt P35442); assay: co-IP; endogenous proteins in CRC cells, detected by Western blot (Fig. 4D); details in the Supplemental Materials and Methods
# [2] = molecular target: labeled THBS2 coexpressed in HEK293 cells (UniProt P35442); assay: co-IP; labeled proteins coexpressed in HEK293 cells, detected by Western blot (Fig. 4E)
binding [1],binding [2],Substance
binds,–,YWHAZ (from UniProt P63104 1-245)
–,binds,labeled YWHAZ coexpressed in HEK293 cells (from UniProt P63104 1-245)
–,binds,labeled β-catenin coexpressed in HEK293 cells (from UniProt P35222 1-781)
binds,–,β-catenin (from UniProt P35222 1-781)
